Measured values reported in PMC12495445.
These are yes or no findings as the source states them, for the method shown. In cells and extracts the contact can be indirect. A result given as binding can be weak or reduced; the word gives no strength. Where a sequence is shown, tags or fusion partners need not be part of it.

Tests used:
[1] = molecular target: FLAG-DENN/MADD-V1 (human); assay: co-IP; HEK-293T cells cotransfected with FLAG-DENN/MADD (WT or L346P) and GFP or GFP-Rab mutants; lysed 24 h later in 20 mM Hepes, 100 mM NaCl, 0.5 mM dithiothreitol, 10 mM MgCl2, 1% Triton X-100, pH 7.4; 1 mg of precleared lysate with anti-FLAG antibody and protein G-Sepharose, 2 h, 4 °C; immunoblot with anti-GFP and anti-FLAG
[2] = molecular target: FLAG-DENN/MADD-L346P (human); assay: as above

| Binder | binding [1] | binding [2] |
| --- | --- | --- |
| GFP-Rab3BT36N (protein, UniProt Q9CZT8 1-219) MASVTDGKTGIKDASDQNFDYMFKLLIIGNSSVGKNSFLFRYADDTFTPAFVSTVGIDFKVKTVYRHEKRVKLQIWDTAGQERYRTITTAYYRGAMGFILMYDITNEESFNAVQDWATQIKTYSWDNAQVILVGNKCDMEEERVVPTEKGRLLAEQLGFDFFEASAKENISVRQAFERLVDAICDKMSDSMDTDPSVLGASKTTRLSDTPPLLQQNCSC | binds |  |
| GFP-Rab3CT44N (protein, UniProt P62823 1-227) MRHEAPMQMASAQDARFGQKDSSDQNFDYMFKLLIIGNSSVGKNSFLFRYADDSFTSAFVSTVGIDFKVKTVFKNEKRIKLQIWDTAGQERYRTITTAYYRGAMGFILMYDITNEESFNAVQDWSTQIKTYSWDNAQVILAGNKCDMEDERVVSTERGQRLGEQLGFEFFETSAKDNINVKQTFERLVDIICDKMSESLETDPAITAAKQSTRLKETPPPPQPNCGC | binds | binds |
| GFP-Rab26T81N (protein, UniProt Q504M8 1-260) MSRKKTPKSKGGSEPATSTLPAAAAATNGPRLAHPRTVRPGPEAPPNGPPQSIRPSLGSTGDFYDVAFKVMLVGDSGVGKNCLLVRFKDGAFLAGTFISTVGIDFRNKVLDVDGMKVKLQIWDTAGQERFRSVTHAYYRDAHALLLLYDITNKDSFDNIQAWLTEIQEYAQQDVVLMLLGNKVDSTQDRVVKREDGEKLAKEYGLPFMETSARTGLNVDLAFTAIAKELKQRSAKAPSEPRFRLHDYVKREGRGVSCCRL | binds |  |
| GFP-Rab27B T23N (protein, UniProt O00194 1-218) MTDGDYDYLIKLLALGDSGVGKNTFLYRYTDNKFNPKFITTVGIDFREKRVVYNAQGPNGSSGKAFKVHLQLWDTAGQERFRSLTTAFFRDAMGFLLMFDLTSQQSFLNVRNWMSQLQANAYCENPDIVLIGNKADLPDQREVNERQARELADKYGIPYFETSAATGQNVEKAVETLLDLIMKRMEQCVEKTQIPDTVNGGNSGNLDGEKPPEKKCIC | binds | binds |
| GFP-Rab37T43N (protein, UniProt Q9JKM7 1-223) MTGTPGAATAGDGEAPERSPPFSPNYDLTGKVMLLGDSGVGKNCFLIQFKDGAFLSGTFIATVGIDSRNKVVTVDGARVKLQIWDTAGQERFRSVTHAYYRDAQALLLLYDITNQSSFDNIRAWLTEIHEYAQRDVVIMLLGNKADVSSERVIRSEDGETLAREYGVPFMETSAKTGMNVELAFLAIAKELKYRAGRQPDEPSFQIRDYVESQKKRSSCCSFV | binds |  |
